These are yes or no findings as the source states them, for the method shown. In cells and extracts the contact can be indirect. For part of these data: Binding calls can cover weak binding; strength is not graded here.

The source of these data is PMC8795447.

For assay [1], the target named is angiotensin II type 1 receptor-NanoLuc (human) (UniProt P30556). Kind of assay: condition: only in ΔQ-GRK cells (knockout of GRK2, 3, 5 and 6); FRET or BRET; intermolecular NanoBRET (GPCR-NanoLuc, Halo-Tag-β-arrestin) in ΔQ-GRK cells + empty vector (knockout of GRK2, 3, 5 and 6), agonist-stimulated.
The target is the same in assay [2]. Kind of assay: condition: only in ΔQ-GRK cells with the PKC inhibitor Gö6983 (500 nM); FRET or BRET; intermolecular NanoBRET (AT1R-NanoLuc, Halo-Tag-β-arrestin) in ΔQ-GRK cells + empty vector, pre-incubated with 500 nM PKC inhibitor Gö6983 at 37 °C for 1 h, then AngII. Background: BRET reads energy transfer from a luciferase to a nearby fluorophore.
Assay [3] has the same target. In words: FRET or BRET; intermolecular NanoBRET in living HEK293 cells: GPCR-NanoLuc (donor) and Halo-Tag-β-arrestin labelled with Halo 618 ligand (acceptor); Control, ΔGRK clones or ΔQ-GRK with EV or one overexpressed GRK (2, 3, 5 or 6); baseline 3 min, then agonist for 5 min; some experiments with Gö6983, cmpd101, pindolol or Losartan.

Regarding “Halo-Tag-β-arrestin2 lacking the finger loop region (dFLR) (from UniProt P32120)”, the binding result in assay [1] is listed as “no binding”; in assay [2] it was “no binding”; in assay [3], “binds”.
